Experimental data reported in PubChem BioAssay AID485353 (National Center for Advancing Translational Sciences (NCATS), 2010).
In all, about 330,000 compounds went through this assay and about 610 (0.18%) were called active. Inconclusive means that the source gave no clear call. Such entries were picked first, then a sample of the others. Calls come from the whole dose curve. Potencies of inconclusive entries are doubtful fits and often do not repeat.
Potency is the fitted concentration of half-maximal effect.

Test: qHTS of Yeast-based Assay for SARS-CoV PLP; note: nearly all actives have a fitted effect of over 55% in size
Conditions: S. cerevisiae expressing SARS-CoV PLpro; Potency: growth rescue; series mostly up to 32.9 µM
With `Cc1cc(C(=O)N2CCN(c3ccc([N+](=O)[O-])cc3)CC2)c(C)o1` the Potency was inconclusive: 3.16 µM [activator, single point]. With `O=C(NCCCN1CCOCC1)c1ccc(CNS(=O)(=O)c2ccc(Br)cc2)cc1` the Potency was inconclusive: 10 µM [activator, partial curve]. With `O=C(C[n+]1ccccc1)N/N=C/c1cc(Br)ccc1O` the Potency was “inactive”. For `CC(=O)c1cccc(N(C(=O)c2ccccn2)C(C(=O)NC2CCCCC2)c2cccs2)c1` (centres undefined), the Potency was inconclusive: 20 µM [activator, single point]. In the case of `O=C(Cc1ccc(Cl)cc1)NNS(=O)(=O)c1ccc([N+](=O)[O-])cc1`, the Potency is reported as inconclusive: 1.12 µM [activator, partial curve]. For `CCc1nn(CCCC(=O)N(C)Cc2ccccc2)c(=O)c2cc3occc3n12`, the Potency was inconclusive: 3.98 µM [activator, single point]. In the case of `CCOc1ccc(/C(CCC(=O)O)=N/NC(=S)NCCc2ccccc2)cc1`, the Potency is reported as inconclusive: 20 µM [activator, single point]. With `COc1cccc(-c2nc(NCCN3CCOCC3)c3ccccc3n2)c1O` the Potency was “inactive”. With `CC1(C)Cc2ccccc2C(/C(=N\Nc2cccc(Cl)c2)C(N)=O)=N1` the Potency was “inactive”. With `O=S(=O)(NCc1ccccc1)c1ccc2c(c1)OCCO2` the Potency was “inactive”. For `Cc1ccc(NC(=O)[C@H](NC(=O)[C@@H]2Cc3ccccc3CN2)c2ccccc2)c(C)c1`, the Potency was inconclusive: 3.98 µM [activator, single point]. With `CCN1CCN(CCCNc2ncnc3nc[nH]c23)CC1` the Potency was inconclusive: 2 µM [activator, partial curve]. For `CN(C)CCCNC(=S)N(CCO)Cc1cc2cc3c(cc2[nH]c1=O)OCO3`, the Potency was “inactive”. With `S=c1[nH]nc(-c2cccc(Cl)c2)n1/N=C/c1ccco1` the Potency was “inactive”. With `O=[N+]([O-])c1ccccc1S(=O)(=O)N1CCN(C2CCN(Cc3ccccc3)CC2)CC1` the Potency was inconclusive: 20 µM [activator, single point]. In the case of `CCC1CCC(C(=O)NNC(=O)OC)CC1` (centres undefined), the Potency is reported as inconclusive: 22.4 µM [activator, single point]. For `CN(C(=O)COC(=O)/C=C/c1ccc2ccccc2n1)c1c(N)n(Cc2ccccc2)c(=O)[nH]c1=O`, the Potency was “inactive”. With `Cc1cccc(C(=O)OCN2C(=O)c3ccccc3C2=O)c1[N+](=O)[O-]` the Potency was inconclusive: 20 µM [activator, single point]. With `COc1ccc(C(=O)NC(=S)Nc2ccc3oc(=O)ccc3c2)cc1OC` the Potency was “inactive”. In the case of `COc1cc(S(=O)(=O)NCc2ccncc2)c(OC)cc1C`, the Potency is reported as “inactive”. In the case of `CC(NC(=O)c1cccc(S(=O)(=O)N2CCN(Cc3ccccc3)CC2)c1)c1ccc(Br)cc1` (centres undefined), the Potency is reported as inconclusive: 2.82 µM [activator, single point]. With `CCNC(=O)C1CCN(S(=O)(=O)c2ccc(F)cc2)CC1` the Potency was inconclusive: 12.6 µM [activator, partial curve]. For `CCCN1CCC(=O)N([C@H](CSc2ccccc2)c2ccccc2)CC1`, the Potency was “inactive”. For `O=S(=O)(NCc1ccccc1)NCc1cccc(C(F)(F)F)c1`, the Potency was “inactive”. For `CCc1ccccc1OCCCOc1ccc(OC)cc1`, the Potency was inconclusive: 3.16 µM [activator, single point]. For `CN(C)CC(C)(C)CNC(=O)C1CCN(CCCc2ccccc2)CC1`, the Potency was inconclusive: 7.08 µM [activator, partial curve]. With `S=C(NCc1ccco1)Nc1ccc(Cl)cc1Cl` the Potency was inconclusive: 20 µM [activator, single point]. In the case of `Cc1c(C(=O)N2CCCCC2)c(S(=O)(=O)N2CCc3ccccc32)c(C)n1C`, the Potency is reported as inconclusive: 11.2 µM [activator, single point]. With `CCOc1ccccc1N(CC(=O)Nc1cccc2ccccc12)S(C)(=O)=O` the Potency was “inactive”. In the case of `CC(C)(C)n1ncc(Oc2ccccc2[N+](=O)[O-])c(Cl)c1=O`, the Potency is reported as inconclusive: 3.98 µM [activator, single point]. In the case of `CCC(COC)NC(=O)c1ccc(OC)c(OC2CCN(C(C)=O)CC2)c1` (centres undefined), the Potency is reported as inconclusive: 20 µM [activator, single point]. With `COCON1C(=O)CN(C(C)=O)C1c1ccc(Cl)cc1Cl` (centres undefined) the Potency was inconclusive: 0.355 µM [activator, partial curve, poor fit]. For `N#CCc1c(C#N)c(N)nc(N2CCN(S(=O)(=O)c3ccccc3F)CC2)c1C#N`, the Potency was inconclusive: 3.55 µM [activator, partial curve]. With `O=C(COC(=O)c1ccc(S(=O)(=O)N2CCCCCC2)cc1)NCc1ccc(F)cc1` the Potency was inconclusive: 2.82 µM [activator, single point]. For `COC(=O)c1c(NC(=O)CN2CCN(c3ncccn3)CC2)sc(C(N)=O)c1C`, the Potency was “inactive”. In the case of `CCC(CO)Nc1ncnc2c1cnn2-c1ccc(OC)cc1` (centres undefined), the Potency is reported as “inactive”. For `CCOC(=O)c1c(NC(=O)CSc2ncn[nH]2)sc(C(C)=O)c1C`, the Potency was “inactive”. In the case of `Cc1ccc(C(=O)COC(=O)CCN2C(=O)C3C4CC(C(Br)C4Br)C3C2=O)cc1` (centres undefined), the Potency is reported as active: 12.6 µM. With `COc1ccc(Cc2nnc(N/N=C/c3ccc(O)cc3)[nH]c2=O)cc1OC` the Potency was inconclusive: 3.55 µM [activator, partial curve]. For `O=CN1CCN(C(=O)c2cccc([N+](=O)[O-])c2)CC1`, the Potency was inconclusive: 3.16 µM [activator, single point]. With `COc1ccc(CN2C(=O)NC3(CCOc4ccccc43)C2=O)cc1F` (centres undefined) the Potency was inconclusive: 12.6 µM [activator, partial curve]. In the case of `CC(C)(C)c1cc(C(=O)N/N=C/c2ccccc2O)n(-c2ccccc2)n1`, the Potency is reported as active: 14.1 µM. With `Cc1ccc(OC(=O)c2cccc(S(=O)(=O)N3CCN(C)CC3)c2)c(Br)c1` the Potency was inconclusive: 14.1 µM [activator, single point]. For `CCN(C(=O)c1cccs1)c1nc(-c2ccc(OC)cc2)cs1`, the Potency was “inactive”. With `Cc1cscn1` the Potency was inconclusive: 2.24 µM [activator, partial curve, poor fit]. With `NC(=O)C1(N2CCCCC2)CCN(C(=O)CSc2nc3ccccc3s2)CC1` the Potency was “inactive”. With `CC(=O)Nc1nc2ccccc2n1Cc1ccccc1` the Potency was “inactive”. With `O=C(Cn1c(-c2cncs2)nc2ccccc21)NCCc1ccccc1` the Potency was inconclusive: 3.98 µM [activator, single point]. With `FC(F)(F)c1ccc(CN2CCN(Cc3ccco3)CC2)cc1` the Potency was inconclusive: 20 µM [activator, single point]. In the case of `Cc1ccccc1C(=O)Nc1ccc2c(c1)OCCO2`, the Potency is reported as “inactive”. In the case of `CCN(CC(=O)Nc1c(F)cccc1F)C(=O)c1cccc(S(=O)(=O)N2CCN(c3ccccc3)CC2)c1`, the Potency is reported as inconclusive: 1 µM [activator, partial curve]. With `Cc1cc(C(=O)CCl)c(C)n1Cc1ccco1` the Potency was inconclusive: 8.91 µM [activator, partial curve]. For `COc1ccccc1OCC(=O)NCc1ccco1`, the Potency was “inactive”. With `CCn1c(SCC(=O)NC2CCCCC2)nnc1-c1ccccn1` the Potency was active: 3.55 µM. For `COc1ccc(Cn2ccnc2SCC(=O)Nc2ccccc2F)cc1`, the Potency was “inactive”. For `Cc1cccc(-n2c(C)cc(/C=N/NC(N)=S)c2C)c1`, the Potency was inconclusive: 20 µM [activator, single point]. With `Cc1ccc(CC(=O)NC2CCN(Cc3ccccc3)CC2)cc1` the Potency was inconclusive: 3.98 µM [activator, single point]. In the case of `Cc1ccc(-c2nnc(COC(=O)c3cccs3)o2)cc1`, the Potency is reported as inconclusive: 2.51 µM [activator, single point]. In the case of `CCOC(=O)C1(C/C(C)=N/NC(N)=O)CC(C)OC1=O` (centres undefined), the Potency is reported as inconclusive: 0.316 µM [activator, full curve]. With `CCc1ccccc1Nc1nc(N)nc(COC(=O)CCC(=O)c2ccc(F)cc2)n1` the Potency was “inactive”. With `O=C(O)c1nccnc1C(=O)N1CCN(c2ccccc2)CC1` the Potency was inconclusive: 4.47 µM [activator, single point]. For `CCC(C)(C)C1CCC2(CC1)NC(=O)N(CC(=O)N1CCN(S(=O)(=O)c3cc(C)ccc3C)CC1)C2=O` (centres undefined), the Potency was inconclusive: 11.2 µM [activator, single point]. For `COc1ccccc1NC(=O)COc1ccc(/C=N/NC(=O)CSCc2ccc(Cl)cc2)cc1`, the Potency was “inactive”. With `COc1cc(CN2CCc3ccccc3C2)cc([N+](=O)[O-])c1O` the Potency was inconclusive: 20 µM [activator, partial curve]. In the case of `CC[C@]1(c2ccccc2OC)ON(c2ccccc2C(F)(F)F)C1=O`, the Potency is reported as “inactive”. In the case of `COC(=O)c1ccccc1NC(=S)N1CCOCC1`, the Potency is reported as inconclusive: 3.55 µM [activator, single point]. For `CCC(C)C(NC(=O)C1CCC(C)CC1)C(=O)NCc1cccnc1` (centres undefined), the Potency was inconclusive: 5.01 µM [activator, full curve, poor fit]. In the case of `CC(=O)OCn1nnc2ccccc2c1=O`, the Potency is reported as inconclusive: 0.316 µM [activator, full curve, poor fit]. With `NS(=O)(=O)c1ccc(CCNC(=O)C2CCN(S(=O)(=O)c3cnc[nH]3)CC2)cc1` the Potency was inconclusive: 4.47 µM [activator, single point]. With `O=C(Nc1ccc(Br)cc1)N1CCCCCC1` the Potency was inconclusive: 0.398 µM [activator, full curve]. In the case of `COc1cc(CC(=O)OCC(=O)N2C(C)CCCC2C)cc(OC)c1OC` (centres undefined), the Potency is reported as “inactive”. For `Cc1ccc(C(=O)NC(=S)Nc2ccc(S(=O)(=O)N3CCN(C)CC3)cc2)cc1`, the Potency was “inactive”. In the case of `Cc1cccc(NC(=S)NCC23C=CC(O2)C2C(=O)N(c4ccc(Cl)cc4)C(=O)C23)c1` (centres undefined), the Potency is reported as “inactive”. With `Fc1cc(F)c2nc(Nc3nc4cc5c(cc4s3)OCO5)sc2c1` the Potency was “inactive”.
